{"sequences": {"note": "By UniProt entry, the sequences of proteins in these tests, tags left out.", "UniProt Q0JBA9, entry or part of it": "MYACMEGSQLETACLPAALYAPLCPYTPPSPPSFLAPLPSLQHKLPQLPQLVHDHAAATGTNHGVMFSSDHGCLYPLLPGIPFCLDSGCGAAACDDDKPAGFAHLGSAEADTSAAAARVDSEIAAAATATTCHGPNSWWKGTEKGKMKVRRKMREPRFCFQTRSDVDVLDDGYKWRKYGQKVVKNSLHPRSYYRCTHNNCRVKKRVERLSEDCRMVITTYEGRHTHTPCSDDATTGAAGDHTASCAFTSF"}, "source": "paper PMC7819943", "about": "“Rice protein-binding microarrays: a tool to detect cis-acting elements near promoter regions in rice”", "note": "Some of the results follow."}
{"target": "OsWRKY34 (Oryza sativa, UniProt Q0JBA9 1-250)", "experiment": "protein-binding microarray (RPBM); PBS, 2% BSA, 51.3 ng/ul salmon testes DNA, 50 uM zinc acetate, 200 nM TF, 25 C, 1 h; high values mean tight binding", "settings": "protein: recombinant; tags: N-terminal polyhistidine and DsRed monomer fusion (pET32a); label: CyDye5-dUTP incorporated in the synthesized complementary strand; 3' TTTTT single-stranded linker to array surface; dsDNA, one strand shown", "outline": "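An Axon 4000B scanner gave the binding signal as per-feature fluorescence intensity in arbitrary units. This followed washing of a custom Agilent array that had been incubated for 1 h at 25 °C with 200 nM protein in PBS, 2% BSA, salmon testes DNA and 50 µM zinc acetate. The proteins were transcription factors fused at the N-terminus to polyhistidine and DsRed, expressed in E. coli BL21-CodonPlus and purified on Ni–NTA.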"}
{"sequence": "TCCACCTATGCCTCATCAATTCGCCATCTCTTATTCCTGTCGGAGTCACCTAGTGCAG", "binding signal": "9990 fluorescence intensity (a.u.)"}
{"sequence": "TCTCCTCTCCTCTCCTCTCCTACTAGCGGCCAAGCTTTCACGGAGTCACCTAGTGCAG", "binding signal": "8180 fluorescence intensity (a.u.)"}
{"sequence": "AAGTTCGAGAAGACTTTGTTTTTGTTTTGTCTTAATTTCCCGGAGTCACCTAGTGCAG", "binding signal": "11700 fluorescence intensity (a.u.)"}
{"sequence": "TTCATGCAGTTTAATTAATTTTCTTCCTAATTTTTTACACCGGAGTCACCTAGTGCAG", "binding signal": "10000 fluorescence intensity (a.u.)"}
{"sequence": "CGGCTGTGTTCGTTATGTATGGTTGAGAACTTTTTTTCTCCGGAGTCACCTAGTGCAG", "binding signal": "11500 fluorescence intensity (a.u.)"}
{"sequence": "GGAATATATAAAGGGGCGCGGGTTGGGCGGGCGAGGAGGTCGGAGTCACCTAGTGCAG", "binding signal": "11300 fluorescence intensity (a.u.)"}
{"sequence": "CCAGTGTTGTAATCTTATAATTTTTTTCCTACTTATCAATCGGAGTCACCTAGTGCAG", "binding signal": "8920 fluorescence intensity (a.u.)"}
{"sequence": "ATTTCTATTTTCTTTGTTCGCACGTATTTCTCTCTTTCTCCGGAGTCACCTAGTGCAG", "binding signal": "10900 fluorescence intensity (a.u.)"}
{"sequence": "TCCGACTACACGCGGAGACTTACACCTTTGACAGACAACACGGAGTCACCTAGTGCAG", "binding signal": "9220 fluorescence intensity (a.u.)"}
{"sequence": "CCAATTTGTACCCGCGTGTCCGGTTGGTTGGCTGGTTGGTCGGAGTCACCTAGTGCAG", "binding signal": "9020 fluorescence intensity (a.u.)"}
{"sequence": "TTCTAGTAGTACAGTACACCATCACTAACCTCCTTTTCATCGGAGTCACCTAGTGCAG", "binding signal": "11500 fluorescence intensity (a.u.)"}
{"sequence": "GTTTGCCCGCCGCGGCGCCGCCGCCGCCGCCGCCGATCCCCGGAGTCACCTAGTGCAG", "binding signal": "8290 fluorescence intensity (a.u.)"}
{"sequence": "ATGCAGCACGGGAGAAGGGGAGGGTGGCGGAAGGGCGAGGCGGAGTCACCTAGTGCAG", "binding signal": "9410 fluorescence intensity (a.u.)"}
{"sequence": "CTGTTACGCACTATTTTGATAATTAACCAACTGTTTTTCACGGAGTCACCTAGTGCAG", "binding signal": "8380 fluorescence intensity (a.u.)"}
{"sequence": "AGTGGTTCGTGCAGCCGGCTAGCCAGGTCTCTTCGTTTTTCGGAGTCACCTAGTGCAG", "binding signal": "13100 fluorescence intensity (a.u.)"}
{"sequence": "CATGCTTTCATTCACCAGGTTCAAATTTTAATGTTTATAACGGAGTCACCTAGTGCAG", "binding signal": "10700 fluorescence intensity (a.u.)"}
{"sequence": "CACGTATTTCTCTCTTTCTCAATGCATCGGGGAGGACAACCGGAGTCACCTAGTGCAG", "binding signal": "8380 fluorescence intensity (a.u.)"}
{"sequence": "ACCTCAATGCTTATCTCCATCTACACTGTTGGACGGTTCACGGAGTCACCTAGTGCAG", "binding signal": "8790 fluorescence intensity (a.u.)"}
{"sequence": "GTGAATGACATATAGGTCCCATTTATTCTTTTTATTTTTACGGAGTCACCTAGTGCAG", "binding signal": "8420 fluorescence intensity (a.u.)"}
{"sequence": "AAATCGACGTGCGCGCCTTAATTTCTACAGTCCACTACCACGGAGTCACCTAGTGCAG", "binding signal": "10300 fluorescence intensity (a.u.)"}
{"sequence": "TCTCTGTGAATTCAATCTTTGTATAATATGTGTCGGTAATCGGAGTCACCTAGTGCAG", "binding signal": "13400 fluorescence intensity (a.u.)"}
{"sequence": "GCCGCCACATCGATCTACCTACGCATGCGTTTCCTCCTCCCGGAGTCACCTAGTGCAG", "binding signal": "8670 fluorescence intensity (a.u.)"}
{"sequence": "TTTTGACTTGTCCATATCTTTCAGGATCCTCCTTTAGTTTCGGAGTCACCTAGTGCAG", "binding signal": "9240 fluorescence intensity (a.u.)"}
